Laboratory results taken from the supplement of paper PMC10403144.
This is one part of the list.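 How the source made its calls: active = mitochondrial OCR inhibition above 30% at 1 uM; inactive = 30% or less.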 Single values are uncertain, as repeats are few or missing.

System: Toxoplasma gondii RH tachyzoites
Assay: inhibition of mitochondrial O2 consumption rate (% inhibition (relative to pre-injection OCR and atovaquone/antimycin A control)); higher = stronger ETC inhibition
Settings: 1 µM; injection port (sequential injection order): C

Structure (SMILES)	inhibition of mitochondrial O2 consumption rate
O=C1[C@@H](Oc2ccccc2)[C@@H](c2ccc(Cl)cc2)N1CCn1cnc2c(NCc3ccccc3)ncnc21	inactive: -9.29
Cc1cc(NCC(C)C)c2n[nH]c(-c3ccccc3)c2n1	inactive: -17.1
CCOc1ccccc1NC(C)C(=O)Nc1cc(C(F)(F)F)ccc1N1CCOCC1 (stereo not given)	inactive: -10.5
N=C(N)Nc1ccc(-c2ccc(-c3ccc(NC(=N)N)cc3Cl)o2)c(Cl)c1	inactive: -4.55
COc1ccc(-c2nn(C(C)C)c3ncnc(N)c23)cc1OC	inactive: -27.1
Clc1ccc(-n2cc(COc3ccnc4ccccc34)nn2)cc1	inactive: -12.4
Cc1ccccc1CN1CCC(O)(c2ccc(Cl)c(C(F)(F)F)c2)CC1	inactive: -25.7
N#Cc1nc(-c2ccccc2F)oc1NCCc1ccccc1	inactive: -24
CC1=Nc2ccc(Cl)cc2C(c2ccccc2)N1CCNC(=O)CN(C)C (stereo not given)	inactive: -14.4
O=C(Nc1cccc(Cl)c1)c1cnc(N2CCN(c3ccncc3)CC2)c(Cl)c1	inactive: -0.282

Individual results from the results shown.
In inhibition of mitochondrial O2 consumption rate, Cc1cc(NCC(C)C)c2n[nH]c(-c3ccccc3)c2n1 has the entry inactive: -17.1
In inhibition of mitochondrial O2 consumption rate, O=C(Nc1cccc(Cl)c1)c1cnc(N2CCN(c3ccncc3)CC2)c(Cl)c1 has the entry inactive: -0.282
